Assay results: PMC11205155
Results are given in words; binding and its absence hold for the method and conditions named.

Columns and labels:
Assay in all cases: two-hybrid; AD fusions (pGADT7) in S. cerevisiae Y187 mated with BD fusions (pGBKT7) in Y2HGold; diploids spotted at 5 x 10^2, 5 x 10^3 and 5 x 10^4 cells on double-dropout (SDM/-Leu/-Trp/X-α-Gal/AbA) and quadruple-dropout (SDM/-Leu/-Trp/-Ade/-His/X-α-Gal/AbA) plates, 3 days at 30 °C
[1] = target: T1, WC1 of Beauveria bassiana (Beauveria bassiana) (UniProt J5J1K4)
T1 sequence: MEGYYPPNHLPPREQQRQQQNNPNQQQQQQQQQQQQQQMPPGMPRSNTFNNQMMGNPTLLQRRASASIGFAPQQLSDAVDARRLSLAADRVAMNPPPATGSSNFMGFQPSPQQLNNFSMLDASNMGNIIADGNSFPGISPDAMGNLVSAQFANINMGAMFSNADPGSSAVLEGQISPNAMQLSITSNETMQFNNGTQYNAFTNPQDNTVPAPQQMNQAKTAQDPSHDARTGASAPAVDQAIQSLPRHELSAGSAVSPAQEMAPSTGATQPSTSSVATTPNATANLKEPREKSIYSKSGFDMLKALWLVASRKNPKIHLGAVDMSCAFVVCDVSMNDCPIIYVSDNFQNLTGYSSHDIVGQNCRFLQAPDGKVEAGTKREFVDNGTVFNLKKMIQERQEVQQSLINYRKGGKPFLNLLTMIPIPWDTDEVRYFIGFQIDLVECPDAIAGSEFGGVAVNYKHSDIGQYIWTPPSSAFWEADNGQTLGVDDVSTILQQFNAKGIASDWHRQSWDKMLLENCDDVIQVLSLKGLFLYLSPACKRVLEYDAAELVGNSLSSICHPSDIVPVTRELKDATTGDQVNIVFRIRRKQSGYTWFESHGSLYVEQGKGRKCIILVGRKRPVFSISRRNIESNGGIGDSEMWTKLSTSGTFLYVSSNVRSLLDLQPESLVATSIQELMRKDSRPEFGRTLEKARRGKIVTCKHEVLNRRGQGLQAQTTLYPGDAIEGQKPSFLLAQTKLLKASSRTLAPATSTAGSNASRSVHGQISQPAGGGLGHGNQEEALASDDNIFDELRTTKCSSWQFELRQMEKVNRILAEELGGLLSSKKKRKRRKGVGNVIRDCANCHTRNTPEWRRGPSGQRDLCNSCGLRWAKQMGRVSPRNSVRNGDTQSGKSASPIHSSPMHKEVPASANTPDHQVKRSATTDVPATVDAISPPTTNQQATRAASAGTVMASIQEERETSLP

[2] = target: T2, Rad6 of Beauveria bassiana (Beauveria bassiana) (UniProt J4KQN3)
T2 sequence: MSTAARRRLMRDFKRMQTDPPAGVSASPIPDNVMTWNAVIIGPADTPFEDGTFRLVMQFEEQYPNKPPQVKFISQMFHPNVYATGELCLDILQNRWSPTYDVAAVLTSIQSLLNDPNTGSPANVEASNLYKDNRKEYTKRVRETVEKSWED

[3] = target: T3, Rad18 of Beauveria bassiana (Beauveria bassiana) (UniProt J5JS29)
T3 sequence: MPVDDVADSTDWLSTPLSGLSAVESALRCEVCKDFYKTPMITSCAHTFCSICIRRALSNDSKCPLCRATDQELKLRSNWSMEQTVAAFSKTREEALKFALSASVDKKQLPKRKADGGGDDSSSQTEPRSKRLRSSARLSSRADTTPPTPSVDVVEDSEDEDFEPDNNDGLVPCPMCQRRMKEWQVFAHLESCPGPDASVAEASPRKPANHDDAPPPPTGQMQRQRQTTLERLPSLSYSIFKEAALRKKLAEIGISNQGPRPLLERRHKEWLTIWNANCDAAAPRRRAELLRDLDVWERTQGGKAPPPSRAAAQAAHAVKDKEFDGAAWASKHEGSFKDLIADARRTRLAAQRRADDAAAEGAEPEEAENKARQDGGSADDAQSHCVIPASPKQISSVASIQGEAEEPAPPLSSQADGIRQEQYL

[4] = target: T4, Phr2 of Beauveria bassiana (Beauveria bassiana) (UniProt J4WK53)
T4 sequence: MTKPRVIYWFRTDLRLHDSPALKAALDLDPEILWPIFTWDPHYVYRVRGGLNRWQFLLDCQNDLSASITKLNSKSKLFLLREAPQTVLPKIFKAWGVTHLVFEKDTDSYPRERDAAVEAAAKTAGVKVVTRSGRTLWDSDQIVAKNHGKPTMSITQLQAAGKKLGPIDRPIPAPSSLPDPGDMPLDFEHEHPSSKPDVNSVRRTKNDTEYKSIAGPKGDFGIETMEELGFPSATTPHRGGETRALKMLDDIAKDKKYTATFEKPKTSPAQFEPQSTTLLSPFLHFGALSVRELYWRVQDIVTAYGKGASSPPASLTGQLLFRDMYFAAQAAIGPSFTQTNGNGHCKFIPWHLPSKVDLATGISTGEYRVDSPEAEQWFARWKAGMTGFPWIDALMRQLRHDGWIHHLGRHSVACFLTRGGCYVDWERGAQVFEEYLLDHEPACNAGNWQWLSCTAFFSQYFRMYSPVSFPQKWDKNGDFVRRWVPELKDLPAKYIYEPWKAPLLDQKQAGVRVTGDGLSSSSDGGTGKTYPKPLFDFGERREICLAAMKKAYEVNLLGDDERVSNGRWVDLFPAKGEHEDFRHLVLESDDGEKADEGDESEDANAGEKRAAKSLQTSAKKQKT

Measured: binding

Rad5 ortholog of Beauveria bassiana
no binding: all assays above

Rad16A of Beauveria bassiana
no binding: all assays above

Rad16B of Beauveria bassiana
no binding: all assays above
